Earlier results as cited in patent publication US20050227915A1, “Methods and reagents for treating neurodegenerative diseases and motor deficit disorders” (priority 2001, published 2005).

Experiments:
deacetylase = conditions: cited from earlier work
[1] = test system: histone deacetylases (HDAC); conditions: on a molar basis as an inhibitor of HDAC activity; cited from earlier work

## O=C(CCCCCCC(=O)Nc1ccccc1)NO [SAHA, Suberoylanilide hydroxamic acid]
deacetylase
  Effective Inhibitory Concentration Range: nM-μM
[1]
  potency relative to the butyrate class of HDAC inhibitors: approximately 10^3 fold
